Laboratory results published in the supplement of paper PMC10735217.
The other results are listed elsewhere or left out. Single values are uncertain here, since repeats match poorly.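 The human kidney-derived cells carry a stably integrated construct of eight TEAD-binding elements driving luciferase, read by luminescence in a drug-repurposing library screen. A compound counts as a hit when its signal is more than five robust Z scores above the plate mean.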

Tested on: HEK293A TEAD-LUC reporter
Assay: TEAD-luciferase reporter activity (YAP activation), robust Z score vs plate; higher = stronger YAP/TEAD activation
Conditions: 24 h

| SMILES | TEAD-luciferase reporter activity (compound concentration: 200 nM) | TEAD-luciferase reporter activity (compound concentration: 2 uM) | TEAD-luciferase reporter activity (compound concentration: 10 uM) |
| --- | --- | --- | --- |
| CN([C@H]1c2cc(OCCCC(F)(F)F)ccc2OC(C)(C)[C@@H]1O)S(C)(=O)=O | inactive: 0.545 | inactive: -0.951 | inactive: -0.999 |
| CN1C(C(=O)Nc2ccccn2)=C(OC(=O)/C=C/c2ccccc2)c2ccccc2S1(=O)=O | inactive: -0.655 | inactive: -0.219 | inactive: -0.342 |
| O=C(CS(=O)Cc1ccco1)NC/C=C\COc1cc(CN2CCCCC2)ccn1 (configuration not stated) [lafutidine] | inactive: -0.147 | inactive: 0.851 | inactive: -1.1 |
| CCn1cc(C(=O)O)c(=O)c2ccc(Cc3ccccc3)nc21 | inactive: -0.413 | inactive: 0.426 | inactive: 2.8 |
| COC(=O)[C@H]1[C@H]2C[C@@H]3c4[nH]c5cc(OC)ccc5c4CCN3C[C@H]2C[C@@H](OC(=O)c2cc(OC)c(OC)c(OC)c2)[C@@H]1OC [Reserpine] | inactive: -1.32 | inactive: -1.29 | inactive: -0.302 |
| NC(CS)C(=O)O (configuration not stated) [cysteine] | – | inactive: -1.71 | – |
| NC(CS)C(=O)O (configuration not stated) [cysteine, Bio3] | inactive: 3.52 | – | inactive: -0.891 |
| CC1=C(CC/C(C)=C/C=C/C(C)=C/C(=O)O)C(C)(C)CCC1 [Pharmaprojects No. 697] | inactive: 0.0603 | inactive: -1.15 | inactive: 0.874 |
| Nc1ncc2ncn(CC3(OCP(=O)(O)O)CC3)c2n1 | inactive: -0.332 | – | inactive: 0.807 |
| CSCC[C@H](NC(=O)[C@H](CC(=O)O)NC(=O)[C@H](CC(C)C)NC(=O)[C@H](CCSC)NC(=O)[C@@H]1CCCN1C(=O)[C@@H](NC(=O)[C@H](Cc1ccc(O)cc1)NC(=O)[C@H](CC(=O)O)NC(=O)[C@@H](NC(=O)[C@H](CO)NC(=O)[C@H](CCC(=O)O)NC(=O)[C@H](CC(=O)O)NC(=O)[C@H](CCCCN)NC(=O)[C@H](CO)NC(=O)[C@H](CCSC)NC(=O)[C@@H](N)CC(=O)O)C(C)C)C(C)C)C(=O)N[C@@H](CCCCN)C(=O)O | inactive: -0.0189 | inactive: -0.424 | inactive: 0.366 |
| Cc1nc(N2CCOC[C@@H]2C)nc(-n2ccnc2)c1[N+](=O)[O-] | inactive: -0.839 | inactive: -0.00538 | inactive: -0.111 |
| Cc1cccc(Nc2ccncc2S(=O)(=O)NC(=O)NC(C)C)c1 [torasemide ER] | – | inactive: -1.38 | – |
| Cc1cccc(Nc2ccncc2S(=O)(=O)NC(=O)NC(C)C)c1 | inactive: -1.29 | – | inactive: -1.99 |
| CCOC(=O)C(=O)Nc1cc(C#N)cc(NC(=O)C(=O)OCC)c1Cl [Lodoxamide ethyl] | inactive: 0.483 | inactive: -0.747 | inactive: 2.18 |
| COC(=O)N[C@H](C(=O)NCCCCC(CO)N(CC(C)C)S(=O)(=O)c1ccc(N)cc1)C(c1ccccc1)c1ccccc1 (some centres not stated) | inactive: -1.47 | inactive: -1.55 | inactive: -1.57 |
| O=c1cc(-c2ccc(O)c(-c3c(O)cc(O)c4c(=O)cc(-c5ccc(O)cc5)oc34)c2)oc2cc(O)cc(O)c12 | inactive: -0.267 | inactive: 1.09 | inactive: 0.851 |
| COc1ccc(OC2CN(CC3CCCCC3)C2)cc1 | inactive: 0.0385 | – | inactive: -0.0203 |
| C=Cc1cc(C(=O)Nc2ccc(C(=N)N)cc2)c(-c2ccc(C(=O)NCC3CC3)nc2C(=O)O)cc1OC [Avoralstat] | inactive: -1.16 | inactive: 1.29 | inactive: 0.328 |
| Cn1nnnc1C(/C=C/C(O)CC(O)CC(=O)O)=C(c1ccc(F)cc1)c1ccc(F)cc1 (configuration not stated) | inactive: -1.4 | inactive: -1.4 | inactive: 0.131 |

| SMILES | TEAD-luciferase reporter activity (compound concentration: 200 nM) | TEAD-luciferase reporter activity (compound concentration: 2 uM) | TEAD-luciferase reporter activity (compound concentration: 10 uM) |
| --- | --- | --- | --- |
| CC(C)OC(=O)CCC/C=C\C[C@@H]1[C@@H](/C=C/[C@@H](O)COc2cccc(C(F)(F)F)c2)[C@H](O)C[C@@H]1O [travoprost 0.004%] | – | inactive: -0.771 | – |
| CC(C)OC(=O)CCC/C=C\C[C@@H]1[C@@H](/C=C/[C@@H](O)COc2cccc(C(F)(F)F)c2)[C@H](O)C[C@@H]1O [travoprost 0.004%, Alcon] | inactive: -0.928 | – | inactive: -0.773 |
| O=C([C@H](O)CS(=O)(=O)c1ccc2cc(Cl)ccc2c1)N1CCC(N2CCCNC2=O)CC1 | inactive: -0.0686 | inactive: 0.367 | inactive: -1.08 |
| CN1CCN(c2ccc(N3C[C@H](CO)OC3=O)cc2F)C=N1 | inactive: -1.86 | inactive: 1.28 | inactive: -1.6 |
| CC(O)(CC(=O)O)CC(=O)O [meglutol] | inactive: 0.574 | inactive: 0.55 | inactive: 1.18 |
| COc1ccc(Cc2cccc(-c3c(O)c4ccc(Cl)cc4[nH]c3=O)c2)cc1 | inactive: 0.672 | inactive: -0.803 | inactive: 1.97 |
| CC(=O)N[C@H]1[C@H](Oc2ccc3c(C)cc(=O)oc3c2)O[C@H](CO)[C@@H](O)[C@@H]1O | inactive: -0.78 | inactive: -1.09 | – |
| Cc1noc(C)c1NC(=O)c1ccc2c(c1)OCCCO2 | inactive: -1.31 | inactive: -0.496 | inactive: -1.27 |
| COc1cccc(-c2nccc3nc(O)c(-c4noc(C)n4)cc23)c1 [Radequinil] | inactive: -0.994 | inactive: -1.27 | inactive: 1.74 |
| CCOC(=O)C1CCN(c2nc(N(C)S(=O)(=O)c3ccc(F)cc3)ccc2[N+](=O)[O-])CC1 | inactive: -1.1 | inactive: 0.13 | inactive: 1.6 |
| CC(C)CC(=O)N[C@H](C(=O)N[C@H](C(=O)N[C@@H](CC(C)C)[C@@H](O)CC(=O)N[C@@H](C)C(=O)N[C@@H](CC(C)C)[C@@H](O)CC(=O)O)C(C)C)C(C)C | inactive: 1.56 | inactive: -0.168 | inactive: -0.711 |
| COc1cccc(C(=O)N(C)Cc2ccc(-c3ccccc3)cc2)c1 | inactive: 4.73 | – | inactive: 1.62 |
| CNS(=O)(=O)c1cc(OC)c(OC)c(C(=O)NC[C@H]2CCCN2C)c1 [sulverapride] | inactive: -0.44 | inactive: 0.407 | inactive: -0.274 |
| Cc1ccc(S(=O)(=O)NC(=O)Nc2ccc(Cl)cc2)cc1 | inactive: -0.687 | inactive: 1.87 | inactive: 2.27 |
| Cc1ccc(C(=O)N2CCC(N3Cc4ccccc4C3=O)CC2)cc1 | inactive: -0.766 | – | inactive: -0.396 |
| CC(=O)CCCCn1cnc2c1c(=O)n(C)c(=O)n2C | inactive: -0.883 | inactive: 1.03 | inactive: -0.524 |
| O=C(O)CSCC(=O)NC1CCSC1=O (configuration not stated) [erdosteine] | inactive: 1.26 | inactive: -0.277 | inactive: -1.6 |
| Cc1cnc(NC(=O)C2=C(O)c3ccccc3S(=O)(=O)N2C)s1 [meloxicam] | – | inactive: 2.12 | – |
| Cc1cnc(NC(=O)C2=C(O)c3ccccc3S(=O)(=O)N2C)s1 | inactive: -0.565 | – | inactive: -1.74 |

11 entries from above, with bars between the fields.
SMILES | TEAD-luciferase reporter activity (compound concentration: 200 nM) | TEAD-luciferase reporter activity (compound concentration: 2 uM) | TEAD-luciferase reporter activity (compound concentration: 10 uM)
CN1CCN(c2ccc(N3C[C@H](CO)OC3=O)cc2F)C=N1 | inactive: -1.86 | inactive: 1.28 | inactive: -1.6
CC(O)(CC(=O)O)CC(=O)O [meglutol] | inactive: 0.574 | inactive: 0.55 | inactive: 1.18
Cc1noc(C)c1NC(=O)c1ccc2c(c1)OCCCO2 | inactive: -1.31 | inactive: -0.496 | inactive: -1.27
COc1cccc(-c2nccc3nc(O)c(-c4noc(C)n4)cc23)c1 [Radequinil] | inactive: -0.994 | inactive: -1.27 | inactive: 1.74
CCOC(=O)C1CCN(c2nc(N(C)S(=O)(=O)c3ccc(F)cc3)ccc2[N+](=O)[O-])CC1 | inactive: -1.1 | inactive: 0.13 | inactive: 1.6
CC(C)CC(=O)N[C@H](C(=O)N[C@H](C(=O)N[C@@H](CC(C)C)[C@@H](O)CC(=O)N[C@@H](C)C(=O)N[C@@H](CC(C)C)[C@@H](O)CC(=O)O)C(C)C)C(C)C | inactive: 1.56 | inactive: -0.168 | inactive: -0.711
COc1cccc(C(=O)N(C)Cc2ccc(-c3ccccc3)cc2)c1 | inactive: 4.73 | – | inactive: 1.62
Cc1ccc(S(=O)(=O)NC(=O)Nc2ccc(Cl)cc2)cc1 | inactive: -0.687 | inactive: 1.87 | inactive: 2.27
O=C(O)CSCC(=O)NC1CCSC1=O (configuration not stated) [erdosteine] | inactive: 1.26 | inactive: -0.277 | inactive: -1.6
Cc1cnc(NC(=O)C2=C(O)c3ccccc3S(=O)(=O)N2C)s1 [meloxicam] | – | inactive: 2.12 | –
Cc1cnc(NC(=O)C2=C(O)c3ccccc3S(=O)(=O)N2C)s1 | inactive: -0.565 | – | inactive: -1.74

Additional records follow:

| SMILES | TEAD-luciferase reporter activity (compound concentration: 200 nM) | TEAD-luciferase reporter activity (compound concentration: 2 uM) | TEAD-luciferase reporter activity (compound concentration: 10 uM) |
| --- | --- | --- | --- |
| CC(C)(C)C(=O)OCOC(=O)[C@@H]1N2C(=O)C[C@H]2S(=O)(=O)C1(C)C [pivsulbactam] | inactive: -0.0833 | inactive: 0.251 | inactive: 0.734 |
| CC(C)(O)c1cc(Nc2cc(Oc3cn(C4CC4)nc3C3CCOCC3)ccn2)ccn1 | inactive: 2.68 | inactive: -1.39 | inactive: -0.422 |
| O=C(NS(=O)(=O)c1ccccc1)c1ccc(Cl)cc1Cl | inactive: -0.267 | inactive: -1 | inactive: 1.08 |
| CCN(CC)CCNC(=O)c1ccc(NC(C)=O)cc1 [acecainide] | inactive: -0.828 | inactive: -0.349 | inactive: 0.648 |
| COc1ccc(S(=O)(=O)N2CCCN(S(=O)(=O)c3ccc(OC)c(OC)c3)CC2)cc1OC | inactive: -2.17 | inactive: -0.1 | inactive: -0.472 |
| CC(=O)Nc1ccc(OCC(O)CNC(C)C)cc1 (configuration not stated) | inactive: -1.79 | inactive: 1.18 | inactive: -0.621 |
| COCOC(=O)[C@@H]1N2C(=O)[C@@H](N3C(=O)C(c4ccc(O)cc4)NC3(C)C)[C@H]2SC1(C)C (some centres not stated) [sarmoxicillin] | inactive: 0.584 | inactive: 0.695 | inactive: 1.51 |
| COc1ccc(/C=C/C(=O)Nc2ccccc2C(=O)O)cc1OC | inactive: -1.07 | – | inactive: -2.65 |
| COc1ccc(/C=C/C(=O)Nc2ccccc2C(=O)O)cc1OC [tranilast] | – | inactive: -2.21 | – |
| c1ccc2c(Cc3c[nH]c4ccccc34)c[nH]c2c1 [Diindolylmethane] | inactive: -1.37 | inactive: 1.52 | inactive: 0.861 |
| O=C(CCCCCCCC(=O)NCCO)NCCO | inactive: -2.6 | – | inactive: 0.096 |
| O=C(CCCCCCCC(=O)NCCO)NCCO [Adelmidrol] | – | inactive: 0.533 | – |
| C[C@@H](Nc1cc(F)cc(F)c1)c1cc(C(=O)N(C)C)cc2c(=O)cc(N3CCOCC3)oc12 | inactive: 1.61 | inactive: 1.19 | active: 5.5 |
| Nc1nonc1/C(=N\c1ccc(F)c(Cl)c1)NO | inactive: 0.618 | inactive: -0.317 | inactive: -1.54 |
| CCN(CC)CCNc1ccc(CNC)c2sc3ccccc3c(=O)c12 | inactive: -0.942 | inactive: -1.79 | inactive: 4.47 |
| COc1cc2c(cc1OC)[C@@H](c1ccccc1)CN(C)CC2 | inactive: -1.12 | inactive: -0.0143 | inactive: 0.697 |
| CC(C)Oc1ccc2c(=O)c(-c3ccccc3)coc2c1 [ipriflavone] | – | inactive: 1.91 | – |
| CC(C)Oc1ccc2c(=O)c(-c3ccccc3)coc2c1 | inactive: 3.17 | – | inactive: 2.92 |
